# Laboratory results: PMC9051092
# Sequences of proteins named here, by UniProt entry; tags and fusion partners are left off.
# UniProt Q86WV6: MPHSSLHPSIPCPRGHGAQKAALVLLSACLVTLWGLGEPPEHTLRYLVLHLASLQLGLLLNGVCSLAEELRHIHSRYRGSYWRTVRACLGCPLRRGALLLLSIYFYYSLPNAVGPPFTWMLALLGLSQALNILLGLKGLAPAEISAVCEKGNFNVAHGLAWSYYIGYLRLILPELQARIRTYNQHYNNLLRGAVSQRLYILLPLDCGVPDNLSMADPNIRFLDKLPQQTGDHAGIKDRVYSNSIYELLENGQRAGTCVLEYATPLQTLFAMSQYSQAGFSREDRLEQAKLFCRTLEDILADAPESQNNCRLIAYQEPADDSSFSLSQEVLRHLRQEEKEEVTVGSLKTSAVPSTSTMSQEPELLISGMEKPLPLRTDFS
# UniProt O15260: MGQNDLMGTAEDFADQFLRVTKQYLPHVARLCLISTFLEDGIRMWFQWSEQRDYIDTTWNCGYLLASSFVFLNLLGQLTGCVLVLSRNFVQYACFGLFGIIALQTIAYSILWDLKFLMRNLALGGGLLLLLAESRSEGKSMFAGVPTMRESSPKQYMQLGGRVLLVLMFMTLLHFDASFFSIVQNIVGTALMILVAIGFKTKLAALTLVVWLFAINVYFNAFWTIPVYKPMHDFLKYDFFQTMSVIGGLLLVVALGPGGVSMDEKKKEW
# UniProt P53621: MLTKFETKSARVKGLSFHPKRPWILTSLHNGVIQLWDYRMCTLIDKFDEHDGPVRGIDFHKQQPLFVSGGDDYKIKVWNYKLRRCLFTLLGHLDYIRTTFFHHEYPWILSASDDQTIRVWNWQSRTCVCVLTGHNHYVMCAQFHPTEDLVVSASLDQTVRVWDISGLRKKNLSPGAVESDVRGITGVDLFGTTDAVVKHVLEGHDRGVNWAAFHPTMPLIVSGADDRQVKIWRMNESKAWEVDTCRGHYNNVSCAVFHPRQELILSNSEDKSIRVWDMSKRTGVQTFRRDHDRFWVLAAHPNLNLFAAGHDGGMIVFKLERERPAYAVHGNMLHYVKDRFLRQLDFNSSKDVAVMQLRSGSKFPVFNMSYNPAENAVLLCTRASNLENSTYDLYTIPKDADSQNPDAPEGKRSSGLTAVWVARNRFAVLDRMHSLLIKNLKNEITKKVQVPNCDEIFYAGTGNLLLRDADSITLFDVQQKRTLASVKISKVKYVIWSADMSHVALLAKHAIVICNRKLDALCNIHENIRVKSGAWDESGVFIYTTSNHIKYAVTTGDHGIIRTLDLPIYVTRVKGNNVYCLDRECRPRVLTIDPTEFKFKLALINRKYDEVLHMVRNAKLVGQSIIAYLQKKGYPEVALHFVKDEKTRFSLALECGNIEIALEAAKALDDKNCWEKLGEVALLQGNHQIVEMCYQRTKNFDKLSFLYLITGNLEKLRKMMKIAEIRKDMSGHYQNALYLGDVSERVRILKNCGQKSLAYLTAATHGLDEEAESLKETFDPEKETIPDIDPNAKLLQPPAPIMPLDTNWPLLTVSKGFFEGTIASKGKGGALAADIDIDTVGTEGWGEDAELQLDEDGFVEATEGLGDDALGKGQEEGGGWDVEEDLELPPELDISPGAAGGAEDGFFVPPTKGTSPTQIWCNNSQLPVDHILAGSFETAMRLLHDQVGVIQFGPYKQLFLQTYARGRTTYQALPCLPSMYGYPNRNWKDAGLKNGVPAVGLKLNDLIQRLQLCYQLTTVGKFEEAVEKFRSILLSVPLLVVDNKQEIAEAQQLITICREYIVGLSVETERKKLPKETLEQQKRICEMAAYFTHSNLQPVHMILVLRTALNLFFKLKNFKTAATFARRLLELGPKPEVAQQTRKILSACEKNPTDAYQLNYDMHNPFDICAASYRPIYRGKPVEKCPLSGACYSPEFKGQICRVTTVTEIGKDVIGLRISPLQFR
# Molecular target: mCitrine (mCit)-tagged human STING (human) (UniProt Q86WV6)
# Test: affinity purification with mass spectrometry; mCit-STING transiently overexpressed in HEK293T (48 hrs), lysis in 1% NP-40 buffer (20 mM Tris-HCl pH 7.4, 150 mM NaCl), IP with anti-GFP antibody cross-linked to Protein A Dynabeads, 2 hrs at 4 °C, four washes; label-free quantification against empty vector control, n = 3 independent IPs
row,Substance,binding
1,SURF4 (from UniProt O15260 1-269),binds
2,COPA (coatomer complex I subunit alpha) (from UniProt P53621 1-1224),binds

# No constants are given. Whether binding was seen depends on the method and setting. In cells and extracts the contact can be indirect. These calls come from enrichment with a bait or labelling near it, and not all partners need be listed.
